Measurements taken from ChEMBL document CHEMBL4316593 (Eur J Med Chem, 2019).
This continues a long series; more values of the same kind are listed elsewhere.

What was measured:
Format in all cases: cell-based
Conditions in all cases: U-87MG ATCC
[1] = Inhibition of RTK/PI3K/AKT/mTOR signaling in human U87 cells assessed as down regulation of EXO1 gene expression at cytotoxic IC50 measured after 48 hrs relative to control
[2] = Inhibition of RTK/PI3K/AKT/mTOR signaling in human U87 cells assessed as down regulation of CCND3 gene expression at cytotoxic IC50 measured after 48 hrs relative to control
[3] = Inhibition of RTK/PI3K/AKT/mTOR signaling in human U87 cells assessed as down regulation of GRB2 gene expression at cytotoxic IC50 measured after 48 hrs relative to control
[4] = Inhibition of RTK/PI3K/AKT/mTOR signaling in human U87 cells assessed as down regulation of LAMC2 gene expression at cytotoxic IC50 measured after 48 hrs relative to control
[5] = Inhibition of RTK/PI3K/AKT/mTOR signaling in human U87 cells assessed as down regulation of AP1B1 gene expression at cytotoxic IC50 measured after 48 hrs relative to control
[6] = Inhibition of RTK/PI3K/AKT/mTOR signaling in human U87 cells assessed as down regulation of ALDH4A1 gene expression at cytotoxic IC50 measured after 48 hrs relative to control
[7] = Inhibition of RTK/PI3K/AKT/mTOR signaling in human U87 cells assessed as down regulation of MIS18A gene expression at cytotoxic IC50 measured after 48 hrs relative to control
[8] = Inhibition of RTK/PI3K/AKT/mTOR signaling in human U87 cells assessed as down regulation of RUSC1 gene expression at cytotoxic IC50 measured after 48 hrs relative to control
[9] = Inhibition of RTK/PI3K/AKT/mTOR signaling in human U87 cells assessed as down regulation of ZMYM5 gene expression at cytotoxic IC50 measured after 48 hrs relative to control
[10] = Inhibition of RTK/PI3K/AKT/mTOR signaling in human U87 cells assessed as down regulation of CAPN7 gene expression at cytotoxic IC50 measured after 48 hrs relative to control
[11] = Inhibition of RTK/PI3K/AKT/mTOR signaling in human U87 cells assessed as down regulation of DDIT3 gene expression at cytotoxic IC50 measured after 48 hrs relative to control
[12] = Inhibition of RTK/PI3K/AKT/mTOR signaling in human U87 cells assessed as down regulation of RBBP5 gene expression at cytotoxic IC50 measured after 48 hrs relative to control
[13] = Inhibition of RTK/PI3K/AKT/mTOR signaling in human U87 cells assessed as down regulation of FAM120AOS gene expression at cytotoxic IC50 measured after 48 hrs relative to control
[14] = Inhibition of RTK/PI3K/AKT/mTOR signaling in human U87 cells assessed as down regulation of GTF2A1 gene expression at cytotoxic IC50 measured after 48 hrs relative to control
[15] = Inhibition of RTK/PI3K/AKT/mTOR signaling in human U87 cells assessed as down regulation of TSPYL2 gene expression at cytotoxic IC50 measured after 48 hrs relative to control
[16] = Inhibition of RTK/PI3K/AKT/mTOR signaling in human U87 cells assessed as down regulation of CEP170B gene expression at cytotoxic IC50 measured after 48 hrs relative to control
[17] = Inhibition of RTK/PI3K/AKT/mTOR signaling in human U87 cells assessed as down regulation of GNG5 gene expression at cytotoxic IC50 measured after 48 hrs relative to control
[18] = Inhibition of RTK/PI3K/AKT/mTOR signaling in human U87 cells assessed as down regulation of YWHAH gene expression at cytotoxic IC50 measured after 48 hrs relative to control
[19] = Inhibition of RTK/PI3K/AKT/mTOR signaling in human U87 cells assessed as down regulation of SOD1 gene expression at cytotoxic IC50 measured after 48 hrs relative to control
[20] = Inhibition of RTK/PI3K/AKT/mTOR signaling in human U87 cells assessed as down regulation of KLHDC10 gene expression at cytotoxic IC50 measured after 48 hrs relative to control
[21] = Inhibition of RTK/PI3K/AKT/mTOR signaling in human U87 cells assessed as up regulation of FZD2 gene expression at cytotoxic IC50 measured after 48 hrs relative to control
[22] = Inhibition of RTK/PI3K/AKT/mTOR signaling in human U87 cells assessed as up regulation of HAS3 gene expression at cytotoxic IC50 measured after 48 hrs relative to control
[23] = Inhibition of RTK/PI3K/AKT/mTOR signaling in human U87 cells assessed as up regulation of forkhead box O4 gene expression at cytotoxic IC50 measured after 48 hrs relative to control
[24] = Inhibition of RTK/PI3K/AKT/mTOR signaling in human U87 cells assessed as up regulation of Pvt1 oncogene (non-protein coding) gene expression at cytotoxic IC50 measured after 48 hrs relative to control
[25] = Inhibition of RTK/PI3K/AKT/mTOR signaling in human U87 cells assessed as up regulation of general transcription factor IIi gene expression at cytotoxic IC50 measured after 48 hrs relative to control
[26] = Inhibition of RTK/PI3K/AKT/mTOR signaling in human U87 cells assessed as up regulation of tRNA-histidine guanylyltransferase 1 like gene expression at cytotoxic IC50 measured after 48 hrs relative to control
[27] = Inhibition of RTK/PI3K/AKT/mTOR signaling in human U87 cells assessed as up regulation of FLNC gene expression at cytotoxic IC50 measured after 48 hrs relative to control
[28] = Inhibition of RTK/PI3K/AKT/mTOR signaling in human U87 cells assessed as up regulation of LDHB gene expression at cytotoxic IC50 measured after 48 hrs relative to control
[29] = Inhibition of RTK/PI3K/AKT/mTOR signaling in human U87 cells assessed as up regulation of UBE2K gene expression at cytotoxic IC50 measured after 48 hrs relative to control
[30] = Inhibition of RTK/PI3K/AKT/mTOR signaling in human U87 cells assessed as up regulation of KDELR2 gene expression at cytotoxic IC50 measured after 48 hrs relative to control
[31] = Inhibition of RTK/PI3K/AKT/mTOR signaling in human U87 cells assessed as up regulation of MAN1A1 gene expression at cytotoxic IC50 measured after 48 hrs relative to control
[32] = Inhibition of RTK/PI3K/AKT/mTOR signaling in human U87 cells assessed as up regulation of MTDH gene expression at cytotoxic IC50 measured after 48 hrs relative to control

For `CC(=O)C(=NNc1ccccc1C#N)C(C)=O`, the log2FC [1] was -2.06, the log2FC [2] was -1.62 and the log2FC [3] was -0.423. The log2FC [4] was -1.47, the log2FC [5] was -1.07 and the log2FC [6] was -1.05. For the same molecule, the log2FC [7] was -0.992, the log2FC [8] was -0.903 and the log2FC [9] was -0.867. It also gave a log2FC [10] of -0.829, a log2FC [11] of -0.814 and a log2FC [12] of -0.765. The log2FC [13] was -0.687, the log2FC [14] was -0.663 and the log2FC [15] was -0.608. The log2FC [16] was -0.605, the log2FC [17] was -0.537 and the log2FC [18] was -0.453. It also gave a log2FC [19] of -0.451, a log2FC [20] of -0.45 and a log2FC [21] of 2.02. It also gave a log2FC [22] of 1.69, a log2FC [23] of 1.23 and a log2FC [24] of 1.16. For the same molecule, the log2FC [25] was 1.14, the log2FC [26] was 0.933 and the log2FC [27] was 0.609. For the same molecule, the log2FC [28] was 0.605, the log2FC [29] was 0.593 and the log2FC [30] was 0.557. For the same molecule, the log2FC [31] was 0.546 and the log2FC [32] was 0.433.
